In CN115850497A:
Results are given in words; binding and its absence hold for the method and conditions named. Some results given as binding are weak or reduced against the parent protein; the word gives no strength.

Protein sequences, listed by entry. Tags and fused reporters are not part of them. Lines headed by an entry give the natural chain unless they say otherwise; changes in a name come on top. Chains listed by the source or under a name are the forms on record and can include a tag or linker. Residues count along the entry.
纯化后的YKL-40蛋白 (Western blot sample) (P36222, residues 22-383): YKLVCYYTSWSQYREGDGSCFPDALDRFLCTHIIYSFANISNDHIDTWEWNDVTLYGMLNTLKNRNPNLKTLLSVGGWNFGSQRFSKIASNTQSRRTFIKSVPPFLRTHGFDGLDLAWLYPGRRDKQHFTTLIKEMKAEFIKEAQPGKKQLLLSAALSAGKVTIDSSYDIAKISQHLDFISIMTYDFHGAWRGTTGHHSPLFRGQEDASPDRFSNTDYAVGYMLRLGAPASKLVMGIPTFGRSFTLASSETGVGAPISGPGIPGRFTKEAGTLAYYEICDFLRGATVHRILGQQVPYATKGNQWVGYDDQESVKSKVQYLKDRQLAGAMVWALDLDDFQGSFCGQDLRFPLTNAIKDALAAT
Q YKL-40-311-328-6his (YKL-40 construct lacking residues 311-328) (P36222, form named): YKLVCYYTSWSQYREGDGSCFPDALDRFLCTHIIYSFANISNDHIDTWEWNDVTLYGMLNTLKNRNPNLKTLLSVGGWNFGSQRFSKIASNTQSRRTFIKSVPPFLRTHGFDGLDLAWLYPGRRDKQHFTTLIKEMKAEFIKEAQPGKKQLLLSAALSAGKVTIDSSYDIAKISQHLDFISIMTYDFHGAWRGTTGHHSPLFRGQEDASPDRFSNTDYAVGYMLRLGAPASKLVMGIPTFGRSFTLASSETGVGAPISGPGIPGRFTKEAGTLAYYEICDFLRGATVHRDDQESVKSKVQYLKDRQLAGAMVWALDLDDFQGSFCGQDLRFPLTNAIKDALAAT
Q YKL-40-329-346-6his (YKL-40 construct lacking residues 329-346) (P36222, form named): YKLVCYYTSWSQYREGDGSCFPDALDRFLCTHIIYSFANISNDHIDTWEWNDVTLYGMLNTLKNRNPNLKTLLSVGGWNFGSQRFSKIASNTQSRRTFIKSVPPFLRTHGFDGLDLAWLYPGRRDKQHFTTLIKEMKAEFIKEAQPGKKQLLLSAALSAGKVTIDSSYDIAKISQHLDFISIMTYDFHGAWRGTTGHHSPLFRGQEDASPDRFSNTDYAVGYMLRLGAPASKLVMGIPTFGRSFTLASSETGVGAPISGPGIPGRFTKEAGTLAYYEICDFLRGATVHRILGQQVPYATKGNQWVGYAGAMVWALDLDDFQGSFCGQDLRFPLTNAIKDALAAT
Q YKL-40-347-364-6his (YKL-40 construct lacking residues 347-364) (P36222, form named): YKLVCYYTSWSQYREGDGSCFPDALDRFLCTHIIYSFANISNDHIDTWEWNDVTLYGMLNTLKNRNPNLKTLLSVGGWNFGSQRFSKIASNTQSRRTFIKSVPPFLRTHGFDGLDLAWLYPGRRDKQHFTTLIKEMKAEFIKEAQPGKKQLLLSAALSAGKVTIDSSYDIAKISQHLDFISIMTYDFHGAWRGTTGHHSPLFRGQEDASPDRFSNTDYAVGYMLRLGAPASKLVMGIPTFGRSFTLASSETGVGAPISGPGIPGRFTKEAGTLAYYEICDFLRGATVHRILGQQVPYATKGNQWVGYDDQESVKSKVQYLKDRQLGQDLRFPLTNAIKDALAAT

Tests used:
[1] = biological target: 纯化后的YKL-40蛋白 (Western blot sample) (human) (UniProt P36222); assay: Western blot of purified YKL-40 after SDS-PAGE
[2] = biological target: Q YKL-40-311-328-6his (YKL-40 construct lacking residues 311-328) (human) (UniProt P36222); assay: immunofluorescence on 293T cells transfected with deletion constructs
[3] = biological target: Q YKL-40-329-346-6his (YKL-40 construct lacking residues 329-346) (human) (UniProt P36222); assay: as above
[4] = biological target: Q YKL-40-347-364-6his (YKL-40 construct lacking residues 347-364) (human) (UniProt P36222); assay: as above

Measured: binding

B1: 重组单克隆抗体10F1 (expressed from 10F1m2a + 10F1mk in 293T cells) (antibody, V domains shown)
VH: EVQLQESGPSLVKPSQTLSLSCSVTGDSITSGYWNWIRKFPGNKLEYMGFISYSGNTYYNPSLKSRISITRDTSKNQYFLQLNSVTTEDTATYYCVRKGDYDGAWFAYWGQGTLVTVSA
VL: DIQMTQSPASLSASVGETVTITCRASGNIHNYLAWYQQKQGKSPQLLVYNAKTLADGVPSRFSGSGSGTQYSLKINSLQPEDFGSYYCQHFWSTPLTFGAGTKLELK
binds: all assays above
